{
  "source": "paper PMC12557607",
  "key": {"[1]": {"biological_target": "FAM136A (FAM136A-HA and FAM136A-FLAG, co-expressed) (human) (UniProt Q96C01)", "assay": "co-IP; FAM136A-FLAG precipitated from HEK293 cells co-expressing FAM136A-FLAG and FAM136A-HA, native lysis; blot against HA and FLAG"}, "FAM136A-HA (human)": {"biological_target": "FAM136A-HA (human) (UniProt Q96C01)", "assay": "cross-linking; intact HEK293 cells expressing FAM136A-HA, disuccinimidyl glutarate (DSG) 0-1000 uM, room temperature, 30 min or other times; stopped with Tris; blot against HA"}, "MIA40-Strep (human)": {"biological_target": "T1, MIA40-Strep (human) (UniProt Q8N4Q1)", "T1 sequence": "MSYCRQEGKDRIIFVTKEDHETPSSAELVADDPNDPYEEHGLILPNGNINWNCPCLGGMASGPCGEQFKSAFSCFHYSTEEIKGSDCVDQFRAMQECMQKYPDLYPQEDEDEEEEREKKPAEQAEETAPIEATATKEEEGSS", "assay": "co-IP; affinity precipitation of MIA40-Strep with streptactin beads from HEK293 cells after NEM; native lysis; blot for FAM136A"}, "MIA40(C4S)-His (human)": {"biological_target": "T2, MIA40(C4S)-His (human) (UniProt Q8N4Q1)", "T2 sequence": "T1 sequence with C4S", "assay": "disulphide-linked complex on non-reducing SDS-PAGE (in vitro oxidation kinetics); 30 uM recombinant MIA40(C4S) mixed with in vitro translated 35S-labelled reduced FAM136A; 30 °C, 1.0 % oxygen; 10 mM EDTA, 200 mM NaCl, 20 mM Tris/Cl pH 7.4; mmPEG12 modification, autoradiography; only the target purified"}, "[2]": {"biological_target": "T3, GST-tagged MIA40 wild-type (human) (UniProt Q8N4Q1)", "T3 sequence": "T1 sequence", "assay": "pull-down; GST-tagged MIA40 variants or GST on glutathione beads, incubated with radiolabelled in vitro translated FAM136A-HA lysate in IP buffer (100 mM NaCl, 100 mM NaPi, 1 % Triton X-100), 20 min, room temperature; SDS-PAGE and autoradiography; only the target purified"}, "[3]": {"biological_target": "T4, GST-tagged MIA40 F68E (human) (UniProt Q8N4Q1)", "T4 sequence": "T1 sequence with F68E", "assay": "pull-down; GST-tagged MIA40 variants or GST on glutathione beads, incubated with radiolabelled in vitro translated FAM136A-HA lysate in IP buffer (100 mM NaCl, 100 mM NaPi, 1 % Triton X-100), 20 min, room temperature; SDS-PAGE and autoradiography; only the target purified"}, "[4]": {"biological_target": "T5, GST-tagged MIA40 C4, 53, 55S (SPS) (human) (UniProt Q8N4Q1)", "T5 sequence": "T1 sequence with C4S, C53S, C55S", "assay": "pull-down; GST-tagged MIA40 variants or GST on glutathione beads, incubated with radiolabelled in vitro translated FAM136A-HA lysate in IP buffer (100 mM NaCl, 100 mM NaPi, 1 % Triton X-100), 20 min, room temperature; SDS-PAGE and autoradiography; only the target purified"}},
  "note": "Positions count from the first letter of the chain named. No constants are given. Whether binding was seen depends on the method and setting. For some of these results: Binding seen in cells or lysates may run through a third protein. Some binding calls cover weakened binding; strength is not graded here. For some of these results: Tags and fused reporters may be left off the sequences shown.",
  "data": [
    {"substance": "FAM136A (FAM136A-HA and FAM136A-FLAG, co-expressed) (from UniProt Q96C01 1-138)", "values": [
      {"measurement": "binding", "setting": "[1]", "value": "binds"}
    ]},
    {"substance": "FAM136A-HA (from UniProt Q96C01 1-138)", "values": [
      {"measurement": "binding", "setting": "FAM136A-HA (human)", "value": "binds"}
    ]},
    {"substance": "FAM136A (from UniProt Q96C01 1-138)", "values": [
      {"measurement": "binding", "setting": "MIA40-Strep (human)", "value": "binds"}
    ]},
    {"substance": "[35S]-labelled in vitro translated FAM136A-HA (from UniProt Q96C01 1-138)", "values": [
      {"measurement": "binding", "setting": "MIA40(C4S)-His (human)", "value": "binds"},
      {"measurement": "binding", "setting": "[2]", "value": "binds"},
      {"measurement": "binding", "setting": "[3]", "value": "binds"},
      {"measurement": "binding", "setting": "[4]", "value": "binds"}
    ]}
  ]
}
